Test results reported in paper PMC9870992.
These are yes or no findings as the source states them, for the method shown. In cells and extracts the contact can be indirect. Some binding calls cover weakened binding; strength is not graded here. Sequences can lack the tags named with a protein.

Amino acid sequences for entries named in this document (tags omitted).
UniProt P78347: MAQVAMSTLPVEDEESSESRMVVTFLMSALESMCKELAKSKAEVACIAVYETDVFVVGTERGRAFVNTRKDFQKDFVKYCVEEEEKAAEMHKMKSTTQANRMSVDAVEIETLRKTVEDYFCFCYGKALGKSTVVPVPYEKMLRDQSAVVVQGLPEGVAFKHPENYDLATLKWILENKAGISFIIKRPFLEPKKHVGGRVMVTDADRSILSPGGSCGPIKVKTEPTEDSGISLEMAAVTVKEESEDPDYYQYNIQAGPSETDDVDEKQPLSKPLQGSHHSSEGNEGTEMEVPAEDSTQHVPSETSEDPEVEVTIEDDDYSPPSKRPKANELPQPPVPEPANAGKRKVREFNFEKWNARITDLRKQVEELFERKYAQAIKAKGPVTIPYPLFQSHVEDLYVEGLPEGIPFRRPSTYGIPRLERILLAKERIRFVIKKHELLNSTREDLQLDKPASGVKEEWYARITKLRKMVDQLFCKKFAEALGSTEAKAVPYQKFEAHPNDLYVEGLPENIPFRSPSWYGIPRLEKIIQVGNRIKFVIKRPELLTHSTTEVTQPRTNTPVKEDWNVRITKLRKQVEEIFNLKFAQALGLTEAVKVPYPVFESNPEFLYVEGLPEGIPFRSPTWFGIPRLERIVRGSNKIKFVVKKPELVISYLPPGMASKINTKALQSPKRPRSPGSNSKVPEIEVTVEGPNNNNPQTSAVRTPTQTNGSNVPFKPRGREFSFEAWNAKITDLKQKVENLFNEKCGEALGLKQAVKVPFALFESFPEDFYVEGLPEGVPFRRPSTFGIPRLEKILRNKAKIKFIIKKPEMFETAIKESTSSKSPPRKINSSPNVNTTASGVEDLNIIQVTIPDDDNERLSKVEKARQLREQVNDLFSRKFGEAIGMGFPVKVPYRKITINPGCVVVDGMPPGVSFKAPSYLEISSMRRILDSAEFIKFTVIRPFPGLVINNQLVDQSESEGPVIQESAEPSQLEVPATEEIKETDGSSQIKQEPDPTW

Molecular target: T1, TRIM24-Flag (UniProt O15164)
T1 sequence: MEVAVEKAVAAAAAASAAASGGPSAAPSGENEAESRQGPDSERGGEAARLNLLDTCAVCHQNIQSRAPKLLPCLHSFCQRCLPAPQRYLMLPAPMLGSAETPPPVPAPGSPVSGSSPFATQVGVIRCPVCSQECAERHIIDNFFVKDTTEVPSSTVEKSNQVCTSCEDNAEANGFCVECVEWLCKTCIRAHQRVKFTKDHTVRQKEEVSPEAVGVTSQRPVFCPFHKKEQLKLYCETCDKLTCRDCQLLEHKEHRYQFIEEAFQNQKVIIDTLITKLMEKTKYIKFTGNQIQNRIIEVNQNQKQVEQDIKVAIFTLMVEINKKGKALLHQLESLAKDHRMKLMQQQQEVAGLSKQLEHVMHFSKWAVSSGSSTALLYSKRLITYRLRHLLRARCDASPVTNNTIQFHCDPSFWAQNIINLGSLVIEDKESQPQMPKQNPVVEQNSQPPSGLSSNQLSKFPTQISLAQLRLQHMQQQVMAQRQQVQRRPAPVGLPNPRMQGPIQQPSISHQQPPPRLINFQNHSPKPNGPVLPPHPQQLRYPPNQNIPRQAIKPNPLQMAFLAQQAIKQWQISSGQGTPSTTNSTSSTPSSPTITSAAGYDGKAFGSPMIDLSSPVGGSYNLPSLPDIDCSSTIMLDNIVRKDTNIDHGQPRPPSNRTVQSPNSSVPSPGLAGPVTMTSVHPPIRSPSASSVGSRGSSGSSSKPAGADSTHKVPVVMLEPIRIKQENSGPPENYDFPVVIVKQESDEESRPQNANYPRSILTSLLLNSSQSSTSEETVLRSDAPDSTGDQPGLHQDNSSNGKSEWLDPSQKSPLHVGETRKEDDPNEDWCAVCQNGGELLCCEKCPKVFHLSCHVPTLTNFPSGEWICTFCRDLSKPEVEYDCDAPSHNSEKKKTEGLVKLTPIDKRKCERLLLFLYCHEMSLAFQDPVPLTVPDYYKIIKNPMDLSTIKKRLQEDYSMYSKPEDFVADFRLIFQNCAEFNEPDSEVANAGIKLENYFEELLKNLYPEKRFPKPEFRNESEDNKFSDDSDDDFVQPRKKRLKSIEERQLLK
Experiment: co-IP; Jurkat cells transduced with TRIM24-Flag lentivirus; 250 μg nuclear extract in Flag-IP Buffer (50 mM Tris-HCl pH 8.0, 90 mM NaCl, 1 mM EDTA, 1% Triton X-100); anti-Flag IP at 4 °C, protein A/G agarose; blot with anti-TFII-I antibody

**Q.** How did the binding turn out when “endogenous TFII-I (from UniProt P78347 1-998)” was run?
**A.** The binding was “binds”.
